Drawing on PubChem BioAssay AID328 (DTP/NCI, 2004), this text covers T/C for four compounds.

In the experiment the test system is BDF1 mice, P388 leukemia ip, median survival T/C. Put plainly: NCI In Vivo Anticancer Drug Screen. Data for tumor model P388 Leukemia (intraperitoneal) in B6D2F1 (BDF1) mice. Particulars: T/C endpoint: median survival time, higher T/C = longer survival. The essentials: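 T/C = treated-group survival ÷ vehicle-control survival; tumour transplanted into mice before dosing.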

The list shows only some results of the screen, not a fair sample: its compounds were picked by chemical class. Not every dose and run of a compound is shown. T/C is the treated group as % of the vehicle group. Where survival is the endpoint, the PubChem record calls one and a half times the control and up active, and a quarter to a half above the control has no call in these data; cut-offs in other NCI protocols can differ. Some T/C values are marked as having no survivor count here; that says nothing about deaths at the dose. Schedule codes are those of the source, read here as Q, the interval in days (D) or hours (H), X, the number of doses. Some entries were tested several times; their values stand side by side, smallest first. Marks such as (2×) stand for listed records that agree.

As for `Oc1cc(O)cc(N(CCCl)CCCl)c1`, the T/C runs as follows: (dose: 6.25 mg/kg/injection, schedule: Q01DX009 (ip), vehicle: water) 126 % of control [survivor count not shown]; (dose: 12.5 mg/kg/injection, schedule: Q01DX009 (ip), vehicle: saline with Tween-80) 158 % of control [survivor count not shown]; (dose: 12.5 mg/kg/injection, schedule: Q01DX009 (ip), vehicle: water) 150 % of control [survivor count not shown]; (dose: 12.5 mg/kg/injection, schedule: Q04DX003 (ip), vehicle: water) 112 % of control [survivor count not shown]; (dose: 25.0 mg/kg/injection, schedule: Q01DX009 (ip), vehicle: saline with Tween-80) 171 % of control [survivor count not shown]; (dose: 25.0 mg/kg/injection, schedule: Q01DX009 (ip), vehicle: water) 160 % of control [survivor count not shown]. Further, the T/C runs as follows: (dose: 25.0 mg/kg/injection, schedule: Q04DX003 (ip), vehicle: water) 128 [survivor count not shown] and 133 % of control [survivor count not shown]; (dose: 50.0 mg/kg/injection, schedule: Q01DX009 (ip), vehicle: saline with Tween-80) 200 % of control [survivor count not shown]; (dose: 50.0 mg/kg/injection, schedule: Q01DX009 (ip), vehicle: water) 188 % of control [survivor count not shown]; (dose: 50.0 mg/kg/injection, schedule: Q04DX003 (ip), vehicle: water) 135 [survivor count not shown] and 154 % of control [survivor count not shown]; (dose: 100.0 mg/kg/injection, schedule: Q01DX009 (ip), vehicle: saline with Tween-80) 89 % of control [survivor count not shown]; (dose: 100.0 mg/kg/injection, schedule: Q01DX009 (ip), vehicle: water) 191 % of control [survivor count not shown]. Besides, the T/C runs as follows: (dose: 100.0 mg/kg/injection, schedule: Q04DX003 (ip), vehicle: water) 146 [survivor count not shown] and 163 % of control [survivor count not shown]; (dose: 200.0 mg/kg/injection, schedule: Q04DX003 (ip), vehicle: water) 155 [survivor count not shown] and 200 % of control [survivor count not shown].
Consider `COc1cc(CN(CCCl)CCBr)cc(OC)c1`, for which the T/C (dose: 0.45 mg/kg/injection, schedule: Q04DX003 (ip), vehicle: saline) is 116 % of control [survivor count not shown]; the T/C (dose: 0.7 mg/kg/injection, schedule: Q04DX003 (ip), vehicle: saline) was 133 % of control [survivor count not shown]; the T/C (dose: 0.75 mg/kg/injection, schedule: Q01DX009 (ip), vehicle: saline with Tween-80) is 162 % of control [survivor count not shown]; the T/C (dose: 1.1 mg/kg/injection, schedule: Q04DX003 (ip), vehicle: saline with Tween-80) is 141 % of control [survivor count not shown]; the T/C (dose: 1.1 mg/kg/injection, schedule: Q04DX003 (ip), vehicle: saline) is 141 % of control [survivor count not shown]; the T/C (dose: 1.5 mg/kg/injection, schedule: Q01DX009 (ip), vehicle: saline with Tween-80) was 162 % of control [survivor count not shown]. Moreover, the T/C (dose: 1.7 mg/kg/injection, schedule: Q04DX003 (ip), vehicle: saline with Tween-80) is 150 % of control [survivor count not shown]; the T/C (dose: 2.6 mg/kg/injection, schedule: Q01DX009 (ip), vehicle: Klucel (hydroxypropylcellulose) (HPC)) is 137 % of control [survivor count not shown]; the T/C (dose: 2.6 mg/kg/injection, schedule: Q04DX003 (ip), vehicle: saline with Tween-80) is 110 [survivor count not shown], 154 [survivor count not shown], 156 % of control [survivor count not shown]; the T/C (dose: 3.0 mg/kg/injection, schedule: Q01DX009 (ip), vehicle: saline with Tween-80) was 169 % of control [survivor count not shown]; the T/C (dose: 4.0 mg/kg/injection, schedule: Q01DX009 (ip), vehicle: Klucel (hydroxypropylcellulose) (HPC)) is 137 % of control [survivor count not shown]; the T/C (dose: 4.0 mg/kg/injection, schedule: Q04DX003 (ip), vehicle: saline with Tween-80) was 137 [survivor count not shown] and 152 % of control [survivor count not shown]. Moreover, the T/C is 161 % of control [survivor count not shown] (dose: 6.0 mg/kg/injection, schedule: Q01DX009 (ip), vehicle: Klucel (hydroxypropylcellulose) (HPC)); 135 [survivor count not shown], 165 [survivor count not shown], 191 % of control [survivor count not shown] (dose: 6.0 mg/kg/injection, schedule: Q04DX003 (ip), vehicle: saline with Tween-80); 163 % of control [survivor count not shown] (dose: 9.0 mg/kg/injection, schedule: Q01DX009 (ip), vehicle: Klucel (hydroxypropylcellulose) (HPC)); 155 [survivor count not shown] and 221 % of control [survivor count not shown] (dose: 9.0 mg/kg/injection, schedule: Q04DX003 (ip), vehicle: saline with Tween-80); 91 % of control [survivor count not shown] (dose: 12.0 mg/kg/injection, schedule: Q04DX003 (ip), vehicle: saline with Tween-80); 189 % of control [survivor count not shown] (dose: 14.0 mg/kg/injection, schedule: Q01DX009 (ip), vehicle: Klucel (hydroxypropylcellulose) (HPC)).
As for `NP(=O)(OCc1ccccc1)N(CCCl)CCCl` (stereo not given), the T/C is 104 % of control [survivor count not shown] (dose: 50.0 mg/kg/injection, schedule: Q04DX003 (ip), vehicle: saline with Tween-80); 100 [survivor count not shown] and 131 % of control [survivor count not shown] (dose: 100.0 mg/kg/injection, schedule: Q04DX003 (ip), vehicle: saline with Tween-80); 136 % of control [survivor count not shown] (dose: 175.0 mg/kg/injection, schedule: Q04DX003 (ip), vehicle: saline with Tween-80); 104 % of control [survivor count not shown] (dose: 200.0 mg/kg/injection, schedule: Q04DX003 (ip), vehicle: saline with Tween-80); 125 [survivor count not shown] and 140 % of control [survivor count not shown] (dose: 264.0 mg/kg/injection, schedule: Q04DX003 (ip), vehicle: saline with Tween-80); 141 [survivor count not shown] (2×) and 175 % of control [survivor count not shown] (dose: 400.0 mg/kg/injection, schedule: Q04DX003 (ip), vehicle: saline with Tween-80). Further, the T/C (dose: 600.0 mg/kg/injection, schedule: Q04DX003 (ip), vehicle: saline with Tween-80) was 175 [survivor count not shown] and 225 % of control [survivor count not shown].
For `CCC(C)(O)C#CCN(CCCl)CCCl` (stereo not given), the T/C (dose: 3.13 mg/kg/injection, schedule: Q01DX009 (ip), vehicle: saline) was 122 % of control [survivor count not shown].
